Values from PubChem BioAssay AID1259254 (NCATS, 2017).
Aim: 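Genome-wide screen for genes that prevent DNA re-replication in cancer cells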 (primary screen). Cell system: human HCT116 colorectal cancer cells. Knock-down reagent: single siRNA against human genes. Timing: 3 days. Measured: 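Imaged Hoechst DNA stain sorts each cell into a cycle phase by DNA amount; per plate, G2 fraction set to 0% for non-targeting and 100% for GMNN siRNA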. Scale: G2 robust z-score: higher = more G2 cells, more excess DNA replication. Call rule: 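Active siRNAs have a G2 robust z of 5 or more median absolute deviations over the median, which in these data means about 38% or higher of GMNN control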.
In all, the deposit lists about 59,000 reagents; below is a part drawn at random. About 1,550 of them (2.6%) were called active. 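G2 share is only a proxy for re-replication; each gene was hit by three separate siRNAs, and active genes were retested.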 The numbers tell different reagents against one gene apart. Further read-outs or replicates are left out here. Not given: the amount of reagent.

| gene | siRNA no. | G2 robust z-score | activity call |
| --- | --- | --- | --- |
| MPP1 | 1 | -1.17 | inactive |
| MPP1 | 2 | 0.521 | inactive |
| MPP1 | 3 | -0.79 | inactive |
| CT55P1 | 1 | 0.247 | inactive |
| CT55P1 | 2 | 0.232 | inactive |
| CT55P1 | 3 | -1.33 | inactive |
| TOMM20 | 1 | 1.74 | inactive |
| TOMM20 | 2 | 2.02 | inactive |
| TOMM20 | 3 | -0.314 | inactive |
| SH2D2A | 1 | 2.4 | inactive |
| SH2D2A | 2 | -0.0347 | inactive |
| SH2D2A | 3 | -0.341 | inactive |
| CSF1 | 1 | -0.159 | inactive |
| CSF1 | 2 | 0.432 | inactive |
| CSF1 | 3 | -0.216 | inactive |
| H4C4 | 1 | -0.134 | inactive |
| H4C4 | 2 | 0.352 | inactive |
| H4C4 | 3 | 0.407 | inactive |
| KDM2B | 1 | 0.715 | inactive |
| KDM2B | 2 | -0.696 | inactive |
| KDM2B | 3 | -0.271 | inactive |
| RPRD2 | 1 | -1.36 | inactive |
| RPRD2 | 2 | -0.00604 | inactive |
| RPRD2 | 3 | -0.122 | inactive |
| OGA | 1 | -1.3 | inactive |
| OGA | 2 | 0.0781 | inactive |
| OGA | 3 | 1.1 | inactive |
| CEACAM4 | 1 | 2.65 | inactive |
| CEACAM4 | 2 | 0.856 | inactive |
| CEACAM4 | 3 | 0.315 | inactive |
| QRSL1 | 1 | -0.473 | inactive |
| QRSL1 | 2 | -0.616 | inactive |
| QRSL1 | 3 | 0.277 | inactive |
| RPL36 | 1 | 0.962 | inactive |
| RPL36 | 2 | 2.28 | inactive |
| RPL36 | 3 | 6.43 | active |
| MMP28 | 1 | -0.39 | inactive |
| MMP28 | 2 | 0.542 | inactive |
| MMP28 | 3 | 0.265 | inactive |
| SPINK2 | 1 | -0.0113 | inactive |
| SPINK2 | 2 | -0.0348 | inactive |
| SPINK2 | 3 | -0.0786 | inactive |
| STEEP1 | 1 | -0.858 | inactive |
| STEEP1 | 2 | 1.52 | inactive |
| STEEP1 | 3 | 0.294 | inactive |
| OR5M8 | 1 | 0.119 | inactive |
| OR5M8 | 2 | 1.35 | inactive |
| OR5M8 | 3 | 2.7 | inactive |
| WDR4 | 1 | -0.965 | inactive |
| WDR4 | 2 | -0.131 | inactive |
| WDR4 | 3 | 0.175 | inactive |
| CDC42BPB | 1 | -0.0681 | inactive |
| CDC42BPB | 2 | 0.0564 | inactive |
| CDC42BPB | 3 | 4.57 | inactive |
| DEFB116 | 1 | 2.02 | inactive |
| DEFB116 | 2 | 0.219 | inactive |
| DEFB116 | 3 | 0.202 | inactive |
| LUZP1 | 1 | -0.387 | inactive |
| LUZP1 | 2 | -0.683 | inactive |
| LUZP1 | 3 | -0.883 | inactive |
| ACVR2A | 1 | -0.428 | inactive |
| ACVR2A | 2 | 0.47 | inactive |
| ACVR2A | 3 | -1.03 | inactive |
| HMX3 | 1 | -0.754 | inactive |
| HMX3 | 2 | -0.701 | inactive |
| HMX3 | 3 | 0.154 | inactive |
| DMPK | 1 | -0.601 | inactive |
| DMPK | 2 | 2.85 | inactive |
| DMPK | 3 | -1.76 | inactive |
| PIRT | 1 | 0.358 | inactive |
| PIRT | 2 | 1.41 | inactive |
| PIRT | 3 | 1.37 | inactive |
| MUC13 | 1 | -0.372 | inactive |
| MUC13 | 2 | 0.954 | inactive |
| MUC13 | 3 | -0.377 | inactive |
| CACHD1 | 1 | -0.803 | inactive |
| CACHD1 | 2 | 1.03 | inactive |
| CACHD1 | 3 | -0.438 | inactive |
| CST9L | 1 | -0.41 | inactive |
| CST9L | 2 | -0.087 | inactive |
| CST9L | 3 | 0.218 | inactive |
| DNAJB12 | 1 | -0.118 | inactive |
| DNAJB12 | 2 | 1.64 | inactive |
| DNAJB12 | 3 | -0.413 | inactive |
| RNPC3 | 1 | 2.46 | inactive |
| RNPC3 | 2 | -1.07 | inactive |
| RNPC3 | 3 | -1.14 | inactive |
